Results published in paper PMC10000386.
Results are given in words; binding and its absence hold for the method and conditions named. Binding seen in cells or lysates may run through a third protein. A result given as binding can be weak or reduced; the word gives no strength.

Amino acid sequences for entries named in this document (tags omitted). A change or cut given only in a name is not applied to a line headed by its entry.
UniProt Q07812: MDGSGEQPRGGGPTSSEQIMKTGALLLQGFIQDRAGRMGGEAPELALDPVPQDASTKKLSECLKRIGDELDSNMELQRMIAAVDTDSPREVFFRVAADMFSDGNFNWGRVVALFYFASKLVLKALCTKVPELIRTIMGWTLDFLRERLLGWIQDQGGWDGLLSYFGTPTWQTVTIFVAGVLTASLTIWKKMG
UniProt P10415: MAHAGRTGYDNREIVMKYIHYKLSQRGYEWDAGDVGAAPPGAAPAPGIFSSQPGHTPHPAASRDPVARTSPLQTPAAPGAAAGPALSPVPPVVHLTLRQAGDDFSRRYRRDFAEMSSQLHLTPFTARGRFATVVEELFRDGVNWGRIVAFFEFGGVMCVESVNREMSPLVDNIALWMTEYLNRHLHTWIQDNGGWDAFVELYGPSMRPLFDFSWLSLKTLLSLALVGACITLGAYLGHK
UniProt Q9BXH1: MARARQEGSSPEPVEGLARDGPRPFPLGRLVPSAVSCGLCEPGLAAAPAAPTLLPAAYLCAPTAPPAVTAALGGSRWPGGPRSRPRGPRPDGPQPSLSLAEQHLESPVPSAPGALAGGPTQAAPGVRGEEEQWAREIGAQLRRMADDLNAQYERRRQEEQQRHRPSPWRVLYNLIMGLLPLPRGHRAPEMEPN

Columns and labels:
Experiment in all cases: split reporter; BiFC: VN- and VC-Venus fragment fusions (N-terminal) co-transfected in HeLa cells with an mRFP vector, 30 µM Z-VAD-fmk, 37 °C, 24 h; Venus/mRFP mean fluorescence ratio of mRFP-positive cells by flow cytometry; in some experiments ABT-199, A-1155463 or S63845 added 1 h after transfection (reduced the complexes of Bcl-2, Bcl-XL or Mcl-1 with Bim, Puma and Noxa)
Bak ΔH1α (human) = Bak ΔH1α (human) (UniProt Q16611)
Bak H164A (human) = molecular target: T1, Bak H164A (human) (UniProt Q16611)
T1 sequence: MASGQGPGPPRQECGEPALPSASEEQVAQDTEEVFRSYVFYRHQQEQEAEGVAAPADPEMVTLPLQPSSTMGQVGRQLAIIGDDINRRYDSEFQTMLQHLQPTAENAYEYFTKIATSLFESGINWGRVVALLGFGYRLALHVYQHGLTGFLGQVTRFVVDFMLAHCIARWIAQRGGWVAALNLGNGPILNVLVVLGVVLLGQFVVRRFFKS

Bak (human) = Bak (human) (UniProt Q16611)
Bax ΔBH3 (human) = Bax ΔBH3 (human) (UniProt Q07812)
Bak ΔBH3 (human) = Bak ΔBH3 (human) (UniProt Q16611)

binding (Bak ΔH1α (human))	binding (Bak H164A (human))	binding (Bak (human))	binding (Bax ΔBH3 (human))	binding (Bak ΔBH3 (human))	Substance
binds	binds	binds			Bak ΔBH3 (from UniProt Q16611)
		binds			Bak ΔH1α (from UniProt Q16611)
			binds		Bcl-2 (from UniProt P10415 1-239)
binds			binds	binds	Puma (from UniProt Q9BXH1 1-193)
